Results deposited as PubChem BioAssay AID1224826 (NIAID, 2016).

- Test: 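Knock-downs that raise or lower Tnf reporter signal after endotoxin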 (primary screen)
- Cell system: RAW264.7 G9 macrophages from mouse bearing reporters for p65 (GFP) and the Tnf promoter (mCherry)
- Knock-down reagent: siRNA pool against mouse genes, 100 nM
- Time to read-out: 16 h of LPS stimulation, after 2 days of siRNA transfection
- Conditions: bacterial lipopolysaccharide (Salmonella minnesota R595), 10 ng/ml
- Measurement: 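Nuclear mCherry signal of the Tnf promoter reporter measured by imaging after background removal, scaled to each plate median and turned into robust z-scores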
- Reading the numbers: Tnf reporter robust z-score: higher = stronger Tnf promoter reporter signal after LPS
- Rule for the call: 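a well counts as active at a score of -1.3 or below (Tlr4 knock-down control median) or above 3 (raised signal); controls and wells holding fewer than 50 cells are excluded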
- Meaning of the calls: active = Tnf reporter clearly lowered or raised; inactive = no clear change in Tnf reporter
In all, the deposit lists about 17,000 reagents; shown is a part drawn at random. Of all reagents, about 1,110 (6.6%) are marked active. 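Active means lowered or raised reporter signal; replicate intensities are raw and not normalised per plate.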 A number with no mark means an inactive call. The numbers tell different reagents against one gene apart. Further read-outs or replicates are left out here.

Tnf reporter robust z-score | fewer than 50 cells in well | gene knocked down | reagent
2.46 | enough cells in well | Mnmip1 | 1
-1.15 | enough cells in well | Thoc7 | 1
-0.73 | enough cells in well | Thoc7 | 2
– | fewer than 50 cells per well; well left out of calls | Otp | 1
– | fewer than 50 cells per well; well left out of calls | Sesn3 | 1
0.39 | enough cells in well | Hal | 1
-1.32 (active) | enough cells in well | Rptn | 1
-0.62 | enough cells in well | Maml3 | 1
-1.22 | enough cells in well | Tjp3 | 1
-0.02 | enough cells in well | Elmo3 | 1
-0.48 | enough cells in well | Csn1s2b | 1
– | fewer than 50 cells per well; well left out of calls | Trpt1 | 1
-0.54 | enough cells in well | Fbxl4 | 1
0.69 | enough cells in well | Gpank1 | 1
0.59 | enough cells in well | Lpar6 | 1
-2.12 (active) | enough cells in well | Nlrp9b | 1
0.3 | enough cells in well | Dcun1d4 | 1
0.93 | enough cells in well | Dag1 | 1
-0.22 | enough cells in well | Ogdh | 1
– | fewer than 50 cells per well; well left out of calls | Syn3 | 1
-1.58 (active) | enough cells in well | Creb3l3 | 1
-0.73 | enough cells in well | Dars2 | 1
2.25 | enough cells in well | Or4c3 | 1
-0.37 | enough cells in well | Thra | 1
0.02 | enough cells in well | Ceacam13 | 1
0.75 | enough cells in well | Lrrc4b | 1
0.52 | enough cells in well | Pcsk1 | 1
1.51 | enough cells in well | Slc12a8 | 1
0 | enough cells in well | Ubxn7 | 1
0.38 | enough cells in well | Klra19 | 1
0.63 | enough cells in well | AI597479 | 1
– | fewer than 50 cells per well; well left out of calls | Slc38a4 | 1
– | fewer than 50 cells per well; well left out of calls | Pcyt2 | 1
-0.33 | enough cells in well | Abcd1 | 1
0.65 | enough cells in well | Ifnar1 | 1
0.53 | enough cells in well | Fhl2 | 1
-1.16 | enough cells in well | Caly | 1
-0.03 | enough cells in well | Nck1 | 1
0.87 | enough cells in well | Slc22a6 | 1
-0.5 | enough cells in well | Fbxl5 | 1
-0.86 | enough cells in well | Serping1 | 1
– | fewer than 50 cells per well; well left out of calls | Trappc13 | 1
-1.71 (active) | enough cells in well | Isca1 | 1
-1.46 (active) | enough cells in well | Sdk1 | 1
0.34 | enough cells in well | Pparg | 1
1.55 | enough cells in well | Bola2 | 1
1.52 | enough cells in well | Lrrc3b | 1
0.24 | enough cells in well | Lamc3 | 1
0.01 | enough cells in well | Krtap13 | 1
-0.93 | enough cells in well | Gpr139 | 1
-0.81 | enough cells in well | C1qb | 1
0.71 | enough cells in well | Celf2 | 1
-0.45 | enough cells in well | Celf2 | 2
-0.94 | enough cells in well | Fam171a2 | 1
0.59 | enough cells in well | R74862 | 1
0.15 | enough cells in well | Pcdh11x | 1
-0.6 | enough cells in well | Bdp1 | 1
5.63 (active) | enough cells in well | Snap25 | 1
